The nature of this series: TPK model, free compound concentration in the unstirred water layer (UWL), rat.

The results in this text go back to article PMC6770063, “Utilizing the Combination of Binding Kinetics and Micro-Pharmacokinetics Link in Vitro α-Glucosidase Inhibition to in Vivo Target Occupancy” (Biomolecules, 2019).

With `O=C(O[C@@H]1Cc2c(O)cc(O)cc2O[C@@H]1c1ccc(O)c(O)c1)c1cc(O)c(O)c(O)c1` [ECG, Epicatechin gallate], the “Ratio (dissociation half-life / UWL half-life)” value runs as follows: (colon) 0.07; (duodenum) 0.92; (ileum) 0.43; (jejunum) 0.11.
In the same order, the values of `O=C(O[C@@H]1Cc2c(O)cc(O)cc2O[C@@H]1c1cc(O)c(O)c(O)c1)c1cc(O)c(O)c(O)c1` [EGCG, epigallocatechin gallate] are 0.09, 0.59, 0.59 and 0.07.
